The source of these data is the supplement of paper PMC6411743.

What all share (test): NP40-soluble protein abundance relative to vehicle (solubility fold change) (ratio); higher = more soluble protein in presence of AMP-PNP
For test [1], the target named is T1, A0A087WTW0|A0A087WVR3|Q96T88 and related entries (UniProt Q96T88).
T1 sequence (whole entry): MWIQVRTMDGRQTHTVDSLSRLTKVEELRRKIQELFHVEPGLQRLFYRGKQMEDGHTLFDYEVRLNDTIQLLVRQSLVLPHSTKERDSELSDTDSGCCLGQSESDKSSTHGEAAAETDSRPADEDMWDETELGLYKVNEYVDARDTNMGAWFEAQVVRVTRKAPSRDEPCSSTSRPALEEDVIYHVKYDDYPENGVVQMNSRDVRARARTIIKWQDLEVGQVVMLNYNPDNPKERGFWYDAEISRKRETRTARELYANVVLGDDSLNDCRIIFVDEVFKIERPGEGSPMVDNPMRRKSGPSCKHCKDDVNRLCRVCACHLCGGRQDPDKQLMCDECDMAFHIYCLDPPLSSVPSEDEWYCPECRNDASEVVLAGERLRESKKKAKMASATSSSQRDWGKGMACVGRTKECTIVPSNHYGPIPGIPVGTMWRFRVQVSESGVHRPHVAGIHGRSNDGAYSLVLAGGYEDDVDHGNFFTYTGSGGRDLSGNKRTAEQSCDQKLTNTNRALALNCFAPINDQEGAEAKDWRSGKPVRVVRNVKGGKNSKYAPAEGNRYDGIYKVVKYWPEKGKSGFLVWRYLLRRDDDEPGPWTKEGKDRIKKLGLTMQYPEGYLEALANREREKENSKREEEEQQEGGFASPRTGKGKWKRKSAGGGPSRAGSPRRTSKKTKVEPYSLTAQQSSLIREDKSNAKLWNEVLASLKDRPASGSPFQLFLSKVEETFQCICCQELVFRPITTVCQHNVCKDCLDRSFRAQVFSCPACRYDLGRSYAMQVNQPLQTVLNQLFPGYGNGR
The gist of the method: (§1)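 Across three independent experiments, values are fold changes against the detergent-processed vehicle for each replicate, based on vsn-normalised intensities. The samples were Jurkat crude lysate treated with eight concentrations (0.1 to 10 mM) for 10 min at room temperature and then 3 min at 37 °C. Lysate was solubilised with 0.8% NP40 and benzonase, ultracentrifuged, and the supernatant analysed by TMT-labelled LC-MS/MS.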

Test [2] concerns the target T2, A0A087WUA5|Q9H223 (UniProt Q9H223).
T2 sequence (whole entry): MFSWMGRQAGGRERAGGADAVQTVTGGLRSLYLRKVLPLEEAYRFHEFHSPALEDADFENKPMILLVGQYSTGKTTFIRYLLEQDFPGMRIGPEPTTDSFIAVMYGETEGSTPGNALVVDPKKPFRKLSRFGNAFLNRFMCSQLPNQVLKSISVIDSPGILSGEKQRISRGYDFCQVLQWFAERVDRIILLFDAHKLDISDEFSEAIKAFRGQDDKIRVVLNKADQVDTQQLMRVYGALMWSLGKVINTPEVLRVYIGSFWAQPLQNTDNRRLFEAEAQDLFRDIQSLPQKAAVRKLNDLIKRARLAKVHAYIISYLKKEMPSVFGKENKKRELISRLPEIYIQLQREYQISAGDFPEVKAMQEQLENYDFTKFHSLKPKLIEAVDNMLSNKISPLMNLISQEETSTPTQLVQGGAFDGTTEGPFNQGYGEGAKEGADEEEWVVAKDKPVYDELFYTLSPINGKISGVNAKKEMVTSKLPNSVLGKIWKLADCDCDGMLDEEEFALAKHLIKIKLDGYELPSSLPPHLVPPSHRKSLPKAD
The gist of the method:
as §1

Test [3] deals with T3, A0A087WVU5|O00512 (UniProt O00512).
T3 sequence (whole entry): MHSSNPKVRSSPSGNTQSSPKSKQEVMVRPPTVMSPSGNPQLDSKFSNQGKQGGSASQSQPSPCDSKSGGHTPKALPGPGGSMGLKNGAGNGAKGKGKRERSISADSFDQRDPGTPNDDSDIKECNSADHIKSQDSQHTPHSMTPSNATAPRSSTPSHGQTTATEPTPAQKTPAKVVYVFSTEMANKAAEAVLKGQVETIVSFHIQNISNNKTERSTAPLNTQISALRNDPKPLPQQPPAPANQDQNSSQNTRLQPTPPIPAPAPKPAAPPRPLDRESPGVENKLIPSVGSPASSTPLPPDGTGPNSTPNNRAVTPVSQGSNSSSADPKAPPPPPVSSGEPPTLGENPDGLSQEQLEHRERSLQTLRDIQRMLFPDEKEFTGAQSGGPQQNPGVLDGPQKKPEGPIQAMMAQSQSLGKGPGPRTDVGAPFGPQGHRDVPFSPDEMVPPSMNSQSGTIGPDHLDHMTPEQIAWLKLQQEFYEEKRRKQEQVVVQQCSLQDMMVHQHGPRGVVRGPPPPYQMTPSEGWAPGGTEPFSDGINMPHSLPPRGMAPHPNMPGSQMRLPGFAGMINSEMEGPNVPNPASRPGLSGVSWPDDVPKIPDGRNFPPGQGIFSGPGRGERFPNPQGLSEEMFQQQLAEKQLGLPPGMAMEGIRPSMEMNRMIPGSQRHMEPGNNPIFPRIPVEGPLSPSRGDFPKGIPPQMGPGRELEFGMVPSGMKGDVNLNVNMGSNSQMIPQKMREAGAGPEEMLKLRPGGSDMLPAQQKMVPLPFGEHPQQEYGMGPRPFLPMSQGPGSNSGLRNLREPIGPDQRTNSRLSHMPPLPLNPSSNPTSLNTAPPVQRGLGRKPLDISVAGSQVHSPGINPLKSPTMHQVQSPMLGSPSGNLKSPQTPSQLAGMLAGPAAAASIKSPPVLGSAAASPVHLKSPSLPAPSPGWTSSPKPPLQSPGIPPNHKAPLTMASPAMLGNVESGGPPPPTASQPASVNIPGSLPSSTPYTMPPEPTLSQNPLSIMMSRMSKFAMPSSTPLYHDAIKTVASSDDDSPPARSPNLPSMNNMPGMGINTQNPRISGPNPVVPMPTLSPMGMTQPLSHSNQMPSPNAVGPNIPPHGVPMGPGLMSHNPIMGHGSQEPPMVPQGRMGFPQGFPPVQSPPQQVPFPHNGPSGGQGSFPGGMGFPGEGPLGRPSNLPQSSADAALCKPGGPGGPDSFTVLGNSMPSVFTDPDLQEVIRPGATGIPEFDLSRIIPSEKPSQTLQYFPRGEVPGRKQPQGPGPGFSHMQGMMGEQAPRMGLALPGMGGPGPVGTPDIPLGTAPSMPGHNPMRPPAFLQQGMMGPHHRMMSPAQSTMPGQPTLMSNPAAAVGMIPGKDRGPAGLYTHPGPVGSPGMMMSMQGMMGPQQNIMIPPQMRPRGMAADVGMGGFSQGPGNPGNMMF
The method in brief: as §1

The target in test [4] is T4, A0A087WVZ0|Q9Y5U8 (UniProt Q9Y5U8).
T4 sequence (whole entry): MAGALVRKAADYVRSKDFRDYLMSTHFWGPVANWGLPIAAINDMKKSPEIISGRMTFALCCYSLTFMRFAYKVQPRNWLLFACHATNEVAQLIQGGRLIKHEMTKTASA
The gist of the method:
as §1

The structures appear in SMILES notation. ± gives the standard deviation of the averaged measurements. The entries are a selection whose mix differs from that of the whole data set.

On to `Nc1ncnc2c1ncn2[C@@H]1O[C@H](COP(=O)(O)OP(=O)(O)NP(=O)(O)O)[C@@H](O)[C@H]1O` [adenylyl imidodiphosphate], for which the NP40-soluble protein abundance was found to be 1.03 ± 0.012 in test [1] (concentration: 1mM); 1.01 ± 0.03 in test [1] (concentration: 2mM); 1.06 ± 0.016 in test [1] (concentration: 4mM); 1.05 ± 0.013 in test [1] (concentration: 6mM); 1.07 ± 0.029 in test [1] (concentration: 8mM); 1.12 ± 0.064 in test [1] (concentration: 10mM). Further, the NP40-soluble protein abundance in test [2] (concentration: 1mM) was found to be 1.01 ± 0.017; in test [2] (concentration: 2mM), 1.01 ± 0.034; in test [2] (concentration: 4mM), 1.03 ± 0.011; in test [2] (concentration: 6mM), 0.998 ± 0.02; in test [2] (concentration: 8mM) it was 0.992 ± 0.019; in test [2] (concentration: 10mM), 1 ± 0.032. The NP40-soluble protein abundance in test [3] (concentration: 1mM) is 0.986 ± 0.012; in test [3] (concentration: 2mM), 1 ± 0.033; in test [3] (concentration: 4mM) it was 0.986 ± 0.015; in test [3] (concentration: 6mM) it was 0.984 ± 0.023; in test [3] (concentration: 8mM) it was 0.969 ± 0.027; in test [3] (concentration: 10mM), 0.985 ± 0.012. Further, the NP40-soluble protein abundance was determined as 0.9859 ± 0.0043 in test [4] (concentration: 1mM); 0.962 ± 0.01 in test [4] (concentration: 2mM); 0.962 ± 0.022 in test [4] (concentration: 4mM); 0.994 ± 0.077 in test [4] (concentration: 6mM); 1.03 ± 0.087 in test [4] (concentration: 8mM); 1.01 ± 0.032 in test [4] (concentration: 10mM).
